Experimental data: PubChem BioAssay AID1159584 (Peter MacCallum Cancer Centre, 2016)
Test: 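Genes whose loss is lethal only together with E-cadherin loss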 (primary screen). Cells: human MCF10A breast epithelial cells, parental and CDH1-null. Reagents: siRNA against human genes. Measurement: 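ATP luminescence (CellTiter-Glo) viability per line relative to mean mock wells over all plates, and the ratio of CDH1-null to parental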. Direction: CDH1-null / parental viability ratio: higher = CDH1-null cells survive relatively better than parental; CDH1-null viability vs mock: higher = more viable CDH1-null cells.
Shown is an unselected part of about 18,000 reagents tested. The numbers tell different reagents against one gene apart. Further read-outs or replicates are left out here. No sequences are given here. Not stated in the record: the amount of reagent, the time to read-out.

| Gene | reagent | CDH1-null / parental viability ratio | CDH1-null viability vs mock (fraction of mock) |
| --- | --- | --- | --- |
| RHPN2 | 1 | 0.9 | 0.53 |
| EFHC1 | 1 | 1.31 | 0.94 |
| ENDOU | 1 | 1.22 | 0.94 |
| PXT1 | 1 | 0.96 | 0.8 |
| ANXA1 | 1 | 1.03 | 0.78 |
| SCCPDH | 1 | 0.75 | 0.68 |
| CMC1 | 1 | 0.9 | 0.76 |
| AKTIP | 1 | 1.1 | 0.75 |
| ZNF568 | 1 | 1.61 | 0.45 |
| GSDMD | 1 | 1.14 | 0.89 |
| S100A7P3 | 1 | 0.98 | 0.62 |
| CTTNBP2 | 1 | 0.77 | 0.64 |
| CRIP2 | 1 | 0.99 | 0.87 |
| SNAP25 | 1 | 1.52 | 0.82 |
| NPR3 | 1 | 0.77 | 0.82 |
| NPR3 | 2 | 1.11 | 1 |
| SIRT6 | 1 | 1.08 | 1 |
| EPPK1 | 1 | 1 | 0.94 |
| UBL7 | 1 | 0.97 | 0.76 |
| MICALL1 | 1 | 1.06 | 0.84 |
| SUCNR1 | 1 | 0.8 | 0.78 |
| PCDHA12 | 1 | 1.06 | 0.92 |
| SLCO3A1 | 1 | 1.25 | 1 |
| IGFBP5 | 1 | 1 | 0.58 |
| PDZK1IP1 | 1 | 0.88 | 0.81 |
| ACTMAP | 1 | 1.19 | 0.96 |
| MRNIP | 1 | 1.1 | 0.46 |
| H6PD | 1 | 1.14 | 0.82 |
| SUMO2 | 1 | 1.24 | 1.19 |
| ARMC12 | 1 | 0.9 | 0.72 |
| LTA4H | 1 | 1.19 | 0.94 |
| ACACB | 1 | 1.03 | 0.66 |
| AVPR1A | 1 | 1.36 | 0.79 |
| AFG1L | 1 | 0.75 | 0.58 |
| PEX2 | 1 | 0.91 | 0.73 |
| OSBPL8 | 1 | 0.84 | 0.59 |
| SMARCA2 | 1 | 0.93 | 0.97 |
| ZFP14 | 1 | 0.93 | 0.77 |
| IFI27 | 1 | 1.01 | 0.69 |
| DOP1A | 1 | 1.12 | 0.72 |
| ZNF599 | 1 | 0.69 | 0.64 |
| ANO5 | 1 | 1.24 | 0.77 |
| KLF15 | 1 | 0.97 | 0.86 |
| RPAP2 | 1 | 1.24 | 0.36 |
| SPESP1 | 1 | 0.68 | 0.52 |
| NPEPL1 | 1 | 1.48 | 0.8 |
| TIMM21 | 1 | 0.91 | 0.78 |
| H4C14 | 1 | 1.14 | 0.75 |
| UBE2L3 | 1 | 1 | 0.88 |
| MINAR1 | 1 | 1.07 | 0.78 |
| SMC6 | 1 | 1 | 1 |
| JUN | 1 | 0.93 | 0.78 |
| PPWD1 | 1 | 0.92 | 0.66 |
| JMJD4 | 1 | 1.1 | 0.9 |
| NUP35 | 1 | 0.65 | 0.36 |
| RAPGEF6 | 1 | 0.71 | 0.58 |
| BAGE2 | 1 | 0.89 | 0.75 |
| KMO | 1 | 1.11 | 1.11 |
| SCN3B | 1 | 1.22 | 1.26 |
| KIF18A | 1 | 0.99 | 0.98 |
| PTP4A2 | 1 | 1.38 | 1.02 |
| FAM8A1 | 1 | 1.03 | 0.98 |
| SIGLEC10 | 1 | 1.13 | 0.88 |
| AIF1L | 1 | 1.21 | 0.97 |
| MAP1A | 1 | 1.33 | 0.56 |
| CIMIP4 | 1 | 0.71 | 0.58 |
| SH2B3 | 1 | 0.9 | 0.72 |
| IFNA5 | 1 | 0.88 | 0.57 |
| SLC7A7 | 1 | 1 | 0.98 |
| INSL4 | 1 | 1.27 | 1.26 |
| KLF2 | 1 | 0.96 | 0.77 |
| DENND6B | 1 | 1.13 | 0.68 |
| BOLA2B | 1 | 1.26 | 0.88 |
| FANCB | 1 | 0.88 | 0.71 |
| CRY1 | 1 | 0.76 | 0.84 |
| PWP2 | 1 | 1.05 | 0.65 |
| CHP2 | 1 | 1.14 | 0.98 |
| GPBP1L1 | 1 | 1.04 | 0.57 |
| CCDC85A | 1 | 1.01 | 1.06 |
| NAT8B | 1 | 0.85 | 0.68 |
| OXGR1 | 1 | 0.69 | 0.62 |
| PAXIP1 | 1 | 1.1 | 1.1 |
| LHX1 | 1 | 0.94 | 0.92 |
| SLC25A42 | 1 | 0.91 | 0.75 |
| ZNF345 | 1 | 1.11 | 1.04 |
| AHSP | 1 | 1.03 | 0.37 |
| PIH1D2 | 1 | 1.28 | 0.74 |

Just “CDH1-null / parental viability ratio” (5 entries from above):
CTTNBP2	0.77
CRIP2	0.99
SNAP25	1.52
NPR3 #1	0.77
NPR3 #2	1.11
